Reference: US20210260066A1, “METHOD OF USING MEK INHIBITOR TO PREVENT RADIATION INDUCED FIBROSIS” (THOMAS JEFFERSON UNIVERSITY, priority 2018, published 2021)
Entries after “also recorded” stand apart in the source; their conditions may differ. For at least one compound, name, drawing or mass did not settle the structure.

Legend:
[1] = tested on: rat peritoneal mesothelial cells; experiment: TGF-β induced mesothelial-mesenchymal transition (MMT) of rat peritoneal mesothelial cells; assay type: cell-based
Protocol: Isolated mesothelial cells were incubated under control conditions without either TGF-β or trametinib, with TGF-β or trametinib alone, or with both TGF-β and trametinib for five days.
These increases in gene expression of phosphor-Erk1/2, FNEDA, αSMA and p-SMAD2 (linker) were blocked by as low a concentration of trametinib as 2 nM.
The experiments in this study were approved by the Institutional Animal Care and Use Committee at Thomas Jefferson University, and were performed in accordance with the National Institutes of Health guidelines for the care and handling of laboratory animals. RPMCs were isolated and cultured as described previously, Briefly, Sprague Dawley rats weighing 150 g-250 g, purchased from Jackson Laboratory, were injected intra-peritoneally with 30 ml of 0.25% trypsin/2.21 mM EDTA under Isoflurane anesthesia and were kept on the metal pad warmed to 37° C. for one hour; after which the abdominal fluid was collected and centrifuged at 300 g for 10 minutes. The isolated pelleted cells were re-suspended and cultured in DMEM/F12 medium supplemented with 10% (v/v) FBS at 37° C. in a humidified atmosphere of 5% CO2 in air. The RPMCs, from the fourth to seventh passages (split ratio 1:4), at 90% confluence were used for the experiments. The cells were treated either with 10 ng/ml of TGF-β1 (R&D systems) alone, or with TGF-β1 and the MEK1/2 inhibitor, Trametinib (2 or 5 nM).
RPMCs were lysed in ice-cold modified RIPA buffer with protease inhibitor cocktail (50 mM/L Tris-HCl, 1% NP-40, 0.25% Na-deoxycholate, 150 mM/L NaCl, 1 mM/L EDTA, 1 mmol/L phenylmethyl sulfonyl fluoride, 1 mM/L sodium orthovanadate, 1 mM/L NaF, pH 7.4). Equivalent amounts of homogenate (50 μg/well), determined by Coomassie blue assay, were separated by sodium dodecyl sulfate polyacrylamide gel electrophoresis (SDS-PAGE), transferred to either nitrocellulose or PVDF membranes, and detected by SuperSignal West Femto or Pico chemiluminescence.

[2] = tested on: C57BL/6 mice; assay type: in vivo, mouse
From the text: C57BL/6 mice were used to develop a consistent model of intra-abdominal adhesion formation. Mouse cecums were gently abraded to promote adhesion formation which were subsequently analyzed histologically and immunochemically to characterize the expression of pro-fibrotic genes including (αSMA and FNEDA isoform, both of which were examined immunohistochemically and by quantitative polymerase chain reaction (qPCR). Trichrome staining was used to assess collagen deposition, a major protein component found in the extracellular matrix (ECM) at adhesion sites. Consistent intra-abdominal adhesions in mice were achieved by gentle cecal abrasion with mortality rates of <10%. Adhesions were seen as early as post-operative day 1 with extensive adhesions being formed and vascularized by day 5. Expression of the FNEDA isoform first and subsequently αSMA and collagen occurred during adhesion maturation.
Equal numbers of male and female C57BL/6 mice (18-25 g, 8-10 weeks of age, Jackson Laboratories, Bar Harbor, Me.) were used in initial experiments while only male mice were used in the drug escalation studies because they sustained greater accumulations of fibrotic tissue (data not shown). […]

[3] = tested on: tumor; experiment: Effect on efficacy of radiation treatment (tumor killing); conditions: effective dosage of trametinib with radiation

## CC(=O)Nc1cccc(-n2c(=O)n(C3CC3)c(=O)c3c(Nc4ccc(I)cc4F)n(C)c(=O)c(C)c32)c1 [trametinib]
[1]; 2 or 5 nM trametinib
  Expression of FNEDA and αSMA: inhibited
  Phosphorylation of Erk1/2: essentially blocked completely
[1]; TGF-β plus trametinib, five days
  Effect on TGF-β induced MMT (cell morphology): effectively blocked the MMT; also recorded: blocked the effect of TGF-β; also recorded: very effective in blocking MMT
[1]; TGF-β-treated cells
  TGF-β induced gain of αSMA and Col 1A1 expression: prevented
[2]; highest dose (3.0 mg/kg/day), osmotic pump, eight days
  Adhesions found at the highest dose: No adhesions were found
[2]; mouse, in vivo
  Expression of pro-fibrotic biomarkers FNEDA and αSMA in treated animals: significant reduction
[3]
  Effect on tumor killing / effectiveness of radiation treatment: appears to enhance the tumor killing abilities of the radiation; also recorded: no adverse effect
